The supplement of paper PMC7666118
The list shows a part of the results.

By UniProt entry, the sequences of proteins in these tests, tags left out. Where a name states a change or a piece, a line headed by the entry shows the natural chain unless it says otherwise.
UniProt Q9UJG1: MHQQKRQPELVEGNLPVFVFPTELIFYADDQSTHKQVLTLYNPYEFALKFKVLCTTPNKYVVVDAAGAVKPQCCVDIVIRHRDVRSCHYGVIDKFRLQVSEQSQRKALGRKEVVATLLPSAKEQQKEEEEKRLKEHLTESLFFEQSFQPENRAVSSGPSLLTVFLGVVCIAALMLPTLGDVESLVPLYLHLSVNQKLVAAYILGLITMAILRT
UniProt Q9H204: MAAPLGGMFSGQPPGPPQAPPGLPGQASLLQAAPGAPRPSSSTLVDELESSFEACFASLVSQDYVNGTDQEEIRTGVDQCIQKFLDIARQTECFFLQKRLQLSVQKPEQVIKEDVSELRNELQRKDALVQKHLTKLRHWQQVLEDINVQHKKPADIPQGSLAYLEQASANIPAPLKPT
UniProt P56192: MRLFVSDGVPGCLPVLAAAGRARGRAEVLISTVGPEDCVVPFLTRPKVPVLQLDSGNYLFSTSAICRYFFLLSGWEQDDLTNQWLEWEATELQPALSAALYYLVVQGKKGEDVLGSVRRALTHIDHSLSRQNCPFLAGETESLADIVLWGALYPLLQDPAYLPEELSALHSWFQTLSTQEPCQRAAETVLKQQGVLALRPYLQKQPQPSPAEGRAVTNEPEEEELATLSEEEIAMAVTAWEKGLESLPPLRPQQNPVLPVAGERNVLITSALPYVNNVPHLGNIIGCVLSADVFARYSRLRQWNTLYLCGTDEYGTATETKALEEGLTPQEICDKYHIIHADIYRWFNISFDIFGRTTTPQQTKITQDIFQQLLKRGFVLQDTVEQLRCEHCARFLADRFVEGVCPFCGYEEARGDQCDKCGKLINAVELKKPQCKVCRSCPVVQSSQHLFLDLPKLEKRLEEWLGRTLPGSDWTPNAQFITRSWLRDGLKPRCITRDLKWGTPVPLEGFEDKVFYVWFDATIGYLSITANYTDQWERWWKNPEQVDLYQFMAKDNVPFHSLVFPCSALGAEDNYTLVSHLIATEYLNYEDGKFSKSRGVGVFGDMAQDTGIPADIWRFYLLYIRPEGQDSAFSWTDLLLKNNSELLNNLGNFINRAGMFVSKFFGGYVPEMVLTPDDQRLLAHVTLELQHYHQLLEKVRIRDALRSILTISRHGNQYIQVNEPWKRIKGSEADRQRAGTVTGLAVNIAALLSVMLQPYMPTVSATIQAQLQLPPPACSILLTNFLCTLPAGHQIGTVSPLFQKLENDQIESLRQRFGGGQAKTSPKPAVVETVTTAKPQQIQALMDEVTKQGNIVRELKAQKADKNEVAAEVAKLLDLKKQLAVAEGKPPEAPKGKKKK
UniProt O14880: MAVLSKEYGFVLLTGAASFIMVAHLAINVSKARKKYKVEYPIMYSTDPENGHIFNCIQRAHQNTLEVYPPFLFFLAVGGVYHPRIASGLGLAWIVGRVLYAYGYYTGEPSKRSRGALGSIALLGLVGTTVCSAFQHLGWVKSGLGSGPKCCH
UniProt Q8N3F8: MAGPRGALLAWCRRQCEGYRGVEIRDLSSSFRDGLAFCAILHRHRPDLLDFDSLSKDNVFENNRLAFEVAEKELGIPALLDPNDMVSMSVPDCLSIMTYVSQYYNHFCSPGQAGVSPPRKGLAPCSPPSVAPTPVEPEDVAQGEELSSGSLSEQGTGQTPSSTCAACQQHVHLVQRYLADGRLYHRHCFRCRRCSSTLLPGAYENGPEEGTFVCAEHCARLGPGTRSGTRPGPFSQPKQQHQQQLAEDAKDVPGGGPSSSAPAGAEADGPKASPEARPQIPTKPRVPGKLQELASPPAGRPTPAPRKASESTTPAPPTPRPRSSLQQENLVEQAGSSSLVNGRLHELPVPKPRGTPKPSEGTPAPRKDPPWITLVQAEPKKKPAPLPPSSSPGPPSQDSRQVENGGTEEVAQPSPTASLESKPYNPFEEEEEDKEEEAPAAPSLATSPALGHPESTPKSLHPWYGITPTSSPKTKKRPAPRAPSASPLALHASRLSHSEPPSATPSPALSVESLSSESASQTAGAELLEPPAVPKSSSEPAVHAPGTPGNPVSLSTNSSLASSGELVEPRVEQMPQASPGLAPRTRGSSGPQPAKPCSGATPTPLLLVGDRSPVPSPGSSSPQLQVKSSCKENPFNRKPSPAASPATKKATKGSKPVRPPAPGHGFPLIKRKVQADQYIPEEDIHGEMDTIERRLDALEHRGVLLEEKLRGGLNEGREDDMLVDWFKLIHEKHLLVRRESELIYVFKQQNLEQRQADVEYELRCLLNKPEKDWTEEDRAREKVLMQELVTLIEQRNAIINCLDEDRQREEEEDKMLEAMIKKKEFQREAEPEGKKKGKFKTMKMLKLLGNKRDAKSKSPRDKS
UniProt Q96HR3: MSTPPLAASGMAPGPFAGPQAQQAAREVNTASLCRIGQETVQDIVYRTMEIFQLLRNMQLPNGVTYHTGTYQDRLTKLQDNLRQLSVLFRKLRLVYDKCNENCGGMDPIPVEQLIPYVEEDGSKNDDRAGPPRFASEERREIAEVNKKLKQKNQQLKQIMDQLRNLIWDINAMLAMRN
UniProt Q9NZL9, whole entry: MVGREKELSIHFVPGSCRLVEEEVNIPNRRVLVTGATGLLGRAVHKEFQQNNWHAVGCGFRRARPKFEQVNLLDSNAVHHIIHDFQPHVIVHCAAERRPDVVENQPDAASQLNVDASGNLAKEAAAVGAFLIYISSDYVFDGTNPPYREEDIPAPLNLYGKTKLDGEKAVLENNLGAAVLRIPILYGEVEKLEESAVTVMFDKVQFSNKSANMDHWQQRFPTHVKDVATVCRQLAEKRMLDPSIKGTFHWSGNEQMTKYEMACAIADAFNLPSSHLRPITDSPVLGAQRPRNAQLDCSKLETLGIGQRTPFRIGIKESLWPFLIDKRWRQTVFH
UniProt Q15773: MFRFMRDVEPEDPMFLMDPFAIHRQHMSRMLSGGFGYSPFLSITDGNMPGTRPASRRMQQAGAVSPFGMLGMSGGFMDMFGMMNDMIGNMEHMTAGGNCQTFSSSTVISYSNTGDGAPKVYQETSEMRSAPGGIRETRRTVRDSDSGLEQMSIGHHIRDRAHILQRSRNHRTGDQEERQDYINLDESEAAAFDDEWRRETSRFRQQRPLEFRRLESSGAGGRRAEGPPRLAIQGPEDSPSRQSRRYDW
UniProt P33992: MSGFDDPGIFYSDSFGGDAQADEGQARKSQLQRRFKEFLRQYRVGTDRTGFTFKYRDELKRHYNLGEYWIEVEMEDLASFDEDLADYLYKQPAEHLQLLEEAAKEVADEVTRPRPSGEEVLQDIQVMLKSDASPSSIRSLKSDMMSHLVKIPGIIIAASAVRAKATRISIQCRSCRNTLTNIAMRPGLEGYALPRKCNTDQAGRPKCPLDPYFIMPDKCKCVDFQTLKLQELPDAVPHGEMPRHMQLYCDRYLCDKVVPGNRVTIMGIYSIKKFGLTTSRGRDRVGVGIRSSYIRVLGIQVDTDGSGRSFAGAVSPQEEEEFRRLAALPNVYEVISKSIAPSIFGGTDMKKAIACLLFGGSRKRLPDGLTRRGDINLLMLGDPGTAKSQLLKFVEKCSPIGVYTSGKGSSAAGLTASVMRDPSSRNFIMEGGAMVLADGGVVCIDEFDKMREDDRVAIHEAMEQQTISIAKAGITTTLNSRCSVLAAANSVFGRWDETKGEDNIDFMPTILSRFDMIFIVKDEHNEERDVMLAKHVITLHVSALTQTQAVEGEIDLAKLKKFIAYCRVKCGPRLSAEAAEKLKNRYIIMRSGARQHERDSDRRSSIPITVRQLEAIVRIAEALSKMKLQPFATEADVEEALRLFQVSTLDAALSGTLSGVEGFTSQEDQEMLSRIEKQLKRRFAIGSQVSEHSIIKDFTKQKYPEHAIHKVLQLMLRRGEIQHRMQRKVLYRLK
UniProt Q9UPY8, whole entry: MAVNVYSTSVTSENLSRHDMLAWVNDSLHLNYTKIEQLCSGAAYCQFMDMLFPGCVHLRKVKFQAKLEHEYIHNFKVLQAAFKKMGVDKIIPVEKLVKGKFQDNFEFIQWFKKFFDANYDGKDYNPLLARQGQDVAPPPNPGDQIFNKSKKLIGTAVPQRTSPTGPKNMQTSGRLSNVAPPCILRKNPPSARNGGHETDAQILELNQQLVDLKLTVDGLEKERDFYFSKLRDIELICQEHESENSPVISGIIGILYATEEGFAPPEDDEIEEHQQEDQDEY
UniProt Q99549: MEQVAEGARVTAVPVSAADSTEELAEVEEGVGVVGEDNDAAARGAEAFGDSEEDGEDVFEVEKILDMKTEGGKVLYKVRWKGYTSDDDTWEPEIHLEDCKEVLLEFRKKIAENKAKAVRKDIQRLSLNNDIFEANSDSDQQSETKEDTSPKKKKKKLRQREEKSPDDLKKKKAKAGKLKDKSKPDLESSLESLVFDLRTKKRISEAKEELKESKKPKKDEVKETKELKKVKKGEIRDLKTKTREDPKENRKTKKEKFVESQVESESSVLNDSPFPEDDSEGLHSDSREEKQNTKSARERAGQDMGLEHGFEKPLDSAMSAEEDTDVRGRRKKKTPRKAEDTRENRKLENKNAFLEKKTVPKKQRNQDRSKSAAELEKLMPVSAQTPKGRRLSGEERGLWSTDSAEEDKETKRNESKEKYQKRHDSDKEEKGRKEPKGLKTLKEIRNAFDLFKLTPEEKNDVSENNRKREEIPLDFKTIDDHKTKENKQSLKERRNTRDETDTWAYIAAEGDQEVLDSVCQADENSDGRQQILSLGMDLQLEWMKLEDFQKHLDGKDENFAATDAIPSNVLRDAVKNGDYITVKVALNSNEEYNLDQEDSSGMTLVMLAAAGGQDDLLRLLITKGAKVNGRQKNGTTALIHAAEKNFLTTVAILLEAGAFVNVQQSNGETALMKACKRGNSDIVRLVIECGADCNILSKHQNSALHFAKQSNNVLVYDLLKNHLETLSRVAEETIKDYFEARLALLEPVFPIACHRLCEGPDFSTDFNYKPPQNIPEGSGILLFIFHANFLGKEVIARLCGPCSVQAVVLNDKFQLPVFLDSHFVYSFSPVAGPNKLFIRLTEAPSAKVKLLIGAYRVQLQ
UniProt O60291: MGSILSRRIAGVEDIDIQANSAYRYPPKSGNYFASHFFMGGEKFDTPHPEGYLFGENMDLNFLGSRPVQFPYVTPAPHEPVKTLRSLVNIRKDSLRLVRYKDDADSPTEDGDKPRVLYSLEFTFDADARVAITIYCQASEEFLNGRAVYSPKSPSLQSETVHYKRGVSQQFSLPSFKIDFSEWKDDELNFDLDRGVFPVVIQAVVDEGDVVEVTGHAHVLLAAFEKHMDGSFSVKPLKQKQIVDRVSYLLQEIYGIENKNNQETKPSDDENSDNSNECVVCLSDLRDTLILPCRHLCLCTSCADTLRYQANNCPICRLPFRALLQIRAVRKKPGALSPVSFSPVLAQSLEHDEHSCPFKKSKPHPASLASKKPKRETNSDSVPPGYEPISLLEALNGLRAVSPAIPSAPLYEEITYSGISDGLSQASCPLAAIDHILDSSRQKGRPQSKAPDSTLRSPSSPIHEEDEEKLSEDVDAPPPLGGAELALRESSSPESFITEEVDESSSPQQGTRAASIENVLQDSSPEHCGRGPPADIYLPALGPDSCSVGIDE
UniProt Q8TDZ2: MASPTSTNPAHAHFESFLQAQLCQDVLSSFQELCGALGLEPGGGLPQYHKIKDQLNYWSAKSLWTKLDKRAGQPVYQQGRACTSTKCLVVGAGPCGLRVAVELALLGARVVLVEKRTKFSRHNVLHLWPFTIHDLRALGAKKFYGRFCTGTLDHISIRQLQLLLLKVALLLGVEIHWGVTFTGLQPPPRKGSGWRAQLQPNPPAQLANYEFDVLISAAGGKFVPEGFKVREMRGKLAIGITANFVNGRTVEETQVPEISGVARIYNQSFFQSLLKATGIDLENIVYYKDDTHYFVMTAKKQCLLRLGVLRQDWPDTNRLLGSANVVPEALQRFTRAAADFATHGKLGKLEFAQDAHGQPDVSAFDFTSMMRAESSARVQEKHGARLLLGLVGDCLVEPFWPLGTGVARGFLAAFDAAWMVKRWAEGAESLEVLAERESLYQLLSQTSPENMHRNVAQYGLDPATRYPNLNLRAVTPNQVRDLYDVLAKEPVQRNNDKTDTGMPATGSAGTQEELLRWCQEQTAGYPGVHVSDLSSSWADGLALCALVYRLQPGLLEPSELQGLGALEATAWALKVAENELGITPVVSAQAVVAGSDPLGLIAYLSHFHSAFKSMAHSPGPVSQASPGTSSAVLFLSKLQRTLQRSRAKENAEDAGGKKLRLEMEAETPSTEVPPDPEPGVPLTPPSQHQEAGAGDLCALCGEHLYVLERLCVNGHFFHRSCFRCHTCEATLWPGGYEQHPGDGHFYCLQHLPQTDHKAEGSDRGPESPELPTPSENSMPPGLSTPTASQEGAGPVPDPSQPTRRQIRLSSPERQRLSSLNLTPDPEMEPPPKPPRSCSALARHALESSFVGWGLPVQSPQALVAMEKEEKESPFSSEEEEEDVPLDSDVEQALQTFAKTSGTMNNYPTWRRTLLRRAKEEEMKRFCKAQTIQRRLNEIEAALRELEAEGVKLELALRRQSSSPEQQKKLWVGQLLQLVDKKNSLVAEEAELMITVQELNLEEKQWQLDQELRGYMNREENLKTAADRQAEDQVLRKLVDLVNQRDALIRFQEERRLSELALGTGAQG

Compound: COc1ccc(Cn2ccc3ccc(C(=O)NO)cc32)cc1
Test: dose-dependent thermal stabilisation call (2D-TPP, DLPTP, 10% FDR) (binary (1 = stabilised)); higher = stabilised by the compound
Conditions: system: HL-60 intact cells; concentration range 0.04-10 µM

| Target | dose-dependent thermal stabilisation call |
| --- | --- |
| MOSPD1 (UniProt Q9UJG1) | inactive: 0 |
| MRPL15 (UniProt Q9P015) | inactive: 0 |
| MAP2K1 (UniProt Q02750) | inactive: 0 |
| MED28 (UniProt Q9H204) | inactive: 0 |
| MORG1 (UniProt Q9BRX9) | inactive: 0 |
| MRPS33 (UniProt Q9Y291) | inactive: 0 |
| MBOAT7 (UniProt Q96N66) | inactive: 0 |
| MARS (UniProt P56192) | inactive: 0 |
| MGST3 (UniProt O14880) | inactive: 0 |
| MBIP (UniProt Q9NS73) | inactive: 0 |
| MDP-1 | inactive: 0 |
| MICALL1 (UniProt Q8N3F8) | inactive: 0 |
| MED30 (UniProt Q96HR3) | inactive: 0 |
| MAT2B (UniProt Q9NZL9) | inactive: 0 |
| MLF2 (UniProt Q15773) | inactive: 0 |
| MRPS25 (UniProt P82663) | inactive: 0 |
| MCM5 (UniProt P33992) | inactive: 0 |
| METTL11A (UniProt Q9BV86) | inactive: 0 |
| MKLN1 (UniProt Q9UL63) | inactive: 0 |
| MAPRE3 (UniProt Q9UPY8) | inactive: 0 |
| MRPS16 (UniProt Q9Y3D3) | inactive: 0 |
| MPHOSPH8 (UniProt Q99549) | inactive: 0 |
| MRPL34 (UniProt Q9BQ48) | inactive: 0 |
| MOBKL1B (UniProt Q9H8S9) | inactive: 0 |
| MGRN1 (UniProt O60291) | inactive: 0 |
| MRPL39 (UniProt Q9NYK5) | inactive: 0 |
| MICAL1 (UniProt Q8TDZ2) | inactive: 0 |

Nothing new here: entries from further up.

| Target | dose-dependent thermal stabilisation call |
| --- | --- |
| MAPRE3 (UniProt Q9UPY8) | inactive: 0 |
| MRPS16 (UniProt Q9Y3D3) | inactive: 0 |
| MPHOSPH8 (UniProt Q99549) | inactive: 0 |
| MRPL34 (UniProt Q9BQ48) | inactive: 0 |
| MOBKL1B (UniProt Q9H8S9) | inactive: 0 |
| MGRN1 (UniProt O60291) | inactive: 0 |
| MRPL39 (UniProt Q9NYK5) | inactive: 0 |
